Among the data in article doi:10.1101/2024.01.24.577116 are binding values, retold here.

Chains of the proteins cited; added tags and fusions are not shown. Residues count along the entry.
UniProt Q9QY81, residues 27-1886: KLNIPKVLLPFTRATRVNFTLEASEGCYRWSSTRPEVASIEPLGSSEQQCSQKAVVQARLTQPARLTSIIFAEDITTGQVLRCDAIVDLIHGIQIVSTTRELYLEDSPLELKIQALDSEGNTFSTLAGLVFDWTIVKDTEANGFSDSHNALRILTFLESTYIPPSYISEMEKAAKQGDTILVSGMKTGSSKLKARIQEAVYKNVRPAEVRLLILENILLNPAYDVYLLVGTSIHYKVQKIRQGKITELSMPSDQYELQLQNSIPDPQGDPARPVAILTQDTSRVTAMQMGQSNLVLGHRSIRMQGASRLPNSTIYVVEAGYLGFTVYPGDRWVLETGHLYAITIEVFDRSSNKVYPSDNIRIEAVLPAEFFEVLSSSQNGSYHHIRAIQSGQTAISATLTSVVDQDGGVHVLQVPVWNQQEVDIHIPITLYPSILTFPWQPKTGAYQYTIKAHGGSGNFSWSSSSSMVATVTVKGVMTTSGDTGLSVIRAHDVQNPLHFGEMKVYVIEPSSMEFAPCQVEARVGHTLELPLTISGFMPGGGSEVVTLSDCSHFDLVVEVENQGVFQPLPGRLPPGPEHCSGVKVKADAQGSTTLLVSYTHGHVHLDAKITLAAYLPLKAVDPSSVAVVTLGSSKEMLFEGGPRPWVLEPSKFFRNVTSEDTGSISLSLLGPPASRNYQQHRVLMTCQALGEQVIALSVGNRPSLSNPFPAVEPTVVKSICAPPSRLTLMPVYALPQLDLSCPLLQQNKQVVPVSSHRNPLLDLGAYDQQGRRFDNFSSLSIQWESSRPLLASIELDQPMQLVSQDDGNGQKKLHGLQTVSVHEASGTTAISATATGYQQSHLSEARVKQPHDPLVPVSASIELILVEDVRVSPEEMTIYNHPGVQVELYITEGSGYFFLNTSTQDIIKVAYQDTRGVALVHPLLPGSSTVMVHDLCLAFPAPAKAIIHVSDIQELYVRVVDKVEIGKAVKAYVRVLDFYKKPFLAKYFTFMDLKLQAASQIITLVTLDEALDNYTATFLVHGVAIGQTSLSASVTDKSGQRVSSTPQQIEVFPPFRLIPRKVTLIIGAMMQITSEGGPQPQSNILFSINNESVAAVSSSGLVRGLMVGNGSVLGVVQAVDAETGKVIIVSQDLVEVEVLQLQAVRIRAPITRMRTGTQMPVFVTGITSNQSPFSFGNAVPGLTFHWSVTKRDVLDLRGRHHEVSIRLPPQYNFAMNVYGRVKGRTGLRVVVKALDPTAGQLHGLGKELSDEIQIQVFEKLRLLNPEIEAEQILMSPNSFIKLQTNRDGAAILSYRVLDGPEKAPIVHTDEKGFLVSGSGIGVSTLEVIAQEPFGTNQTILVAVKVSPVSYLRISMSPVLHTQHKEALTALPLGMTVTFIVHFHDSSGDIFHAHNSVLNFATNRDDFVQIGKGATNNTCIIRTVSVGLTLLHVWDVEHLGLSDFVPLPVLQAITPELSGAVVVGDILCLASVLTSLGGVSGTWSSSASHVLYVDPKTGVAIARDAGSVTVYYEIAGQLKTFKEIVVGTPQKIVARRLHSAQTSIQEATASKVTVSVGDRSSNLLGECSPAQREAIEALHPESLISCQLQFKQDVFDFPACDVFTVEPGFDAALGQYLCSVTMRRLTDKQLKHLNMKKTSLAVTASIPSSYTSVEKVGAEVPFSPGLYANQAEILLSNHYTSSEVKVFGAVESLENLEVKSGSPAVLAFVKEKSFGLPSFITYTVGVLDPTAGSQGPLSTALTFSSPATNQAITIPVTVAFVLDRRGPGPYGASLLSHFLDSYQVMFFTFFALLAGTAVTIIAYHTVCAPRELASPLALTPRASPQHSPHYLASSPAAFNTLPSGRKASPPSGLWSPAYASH

Experiment [1] concerns the target NUP210 (in 4T1 cells, proximity ligation assay) (mouse (endogenous in 4T1)) (UniProt Q9QY81). The experiment can be described thus: proximity ligation.
The target of the next experiment is Myc-tagged NUP210 (UniProt Q9QY81). As to the kind of experiment: co-IP.

Results are given in words; binding and its absence hold for the method and conditions named. Binding seen in cells or lysates may run through a third protein. Some entries that bind do so weakly or less than the wild type.

B1: endogenous NAT10 (protein, UniProt Q8K224 1-1024)
chain: MNRKKVDNRIRILIENGVAERQRSLFVVVGDRGKDQVVILHHMLSKATVKARPSVLWCYKKELGFSSHRKKRMRQLQKKIKSGTLNLKQDDPFELFVAATNIRYCYYNETHKILGNTFGMCVLQDFEALTPNLLARTVETVEGGGLVVILLRTMNSLKQLYTMTMDVHSRYRTEAHQDVVGRFNERFILSLASCKKCLVIDDQLDILPISSHVASIEALPPQAPDENLSPAALELLELKESLQDTQPVGVLVDCCKTLDQAKAVLKFIEGISEKTLRSTVALTAARGRGKSAALGLAIAGAVAFGYSNIFVTSPSPDNLHTLFEFVFKGFDALQYQEHLDYEIVQSLNPEFNKAVIRVNVFREHRQTIQYIHPADAVKLGQAELVVIDEAAAIPLPLVKSLLGPYLVFMASTINGYEGTGRSLSLKLIQQLRQQSAQSQVSTTAENKTTTTARLASARTLHEVSLQESIRYAPGDAVEKWLNDLLCLDCLNITRIVSGCPLPEACELYYVNRDTLFCYHKASEVFLQRLMALYVASHYKNSPNDLQMLSDAPAHHLFCLLPPVPPTQNALPEVLAVVQVCLEGEISRQSILNSLSRGKKASGDLIPWTVSEQFQDPDFGGLSGGRVVRIAVHPDYQGMGYGSRALQLLQMYYEGKFPCLEEKVLETPQEIRTVSSEAVSLLEEVITPRKDLPPLLLKLNERPAERLDYLGVSYGLTPRLLKFWKRAGFVPVYLRQTPNDLTGEHSCIMLKTLADEDEAEQGAWLAAFWKDFRRRFLALLSYQFSTFSPALSLNIIQNRNVAKSALPALGREHLEALFLPYDLKRLEMYSRNMVDYHLIMDLIPAISRLYFLNQLGDLSLSAAQSALLLGIGLQHKSVDQLEKEIELPSGQLMGLFNRIIRKVVKLFNDVQEKAIEEQMVAVKDVVMEPTMKTLSDDLDEAAKEFQEKHKKEVGKLKDMDLSQYVIRGDDEEWNEVLSKAGQNASIVSLKSDKKRKLETKQEPKQSKKLKKRDNNRKDMKLKRKK
B1: the binding entry (in experiment [1]; with Myc-tagged NUP210) was “binds” throughout.

B2: SIPA1 (protein, UniProt P46062 1-1037)
chain: MWAGGVGSPRRGMAPAPTDDLFARKLRQPARPPLTPNTFEPRPARGPLLRSGSDAGEVRPPTPASPRARAHSHEDASRPAATPTRLFTDPLALLGLPAEEPEPTFPPVLEPRWFAHYDVQSLLFDWAPRPRGTGSHTEANSGTLAEGQTTTSDLLLGAPGFVSELGGEGELGLGGPISPPVPPALPNAAVSVLEEPQTRTTTYSLEHADLGAGYYRKYFYGKEHQNFFGLDEALGPVAVSLRREEKEGSGGGTLHSYRVIVRTTQLRTLRGTISEDALPPGPPSVSPRKLLEHVAPRLSPTCLRLGSASPKVPRQLLTLDEQVLSFQRKGGILYCRAGQGSEEEMYNNQEAGAAFMQFLTLLGDVVRLKGFESYRAQLDTKTDSTGTHSLYTTYQDHEIMFHVSTMLPYTPNNQQQLLRKRHIGNDIVTIVFQEPGSKPFCPTTIRSHFQHVFLVVRAHAPCTPHTSYRVAVSRTQDTPAFGPALPEGGGPFAANADFRAFLLAKALNGEQAAGHARQFHAMATRTRQQYLQDLATNEVTTTSLDSASRFGLPSLGGRRRATPRSPGADVQAAGALMWGVRAAPGARVAAGAETSGPDDAEVPCLLGISAETLVLVAPRDGRVVFNCACRDVLAWTFSEHQLDLYHGRGEAITLRLDGAPGQAVGEVVARLQLVSRGCETRELALPRDGQGRLGFEVDAEGFITHVERFTFAETTGLRPGARLLRVCGQTLPKLGPETAAQMLRSAPKVCVTVLPPDESGRPRRSFSELYMLSLKEPSRRGGPEPVQDETGKLVILPPTKQLLHFCLKDSSSPPGPGDLTEERTEFLRTHNSLSSGSSLSDEAPVLPNTTPDLLLVTTANPSAPGTDRETPPSQDQSGSPSSHEDTSDSGPELRASILPRTLSLRNSISKIMSEAGSETLEDEWQSISEIASTCNTILESLSREGQPISESGDPKEALKCDSEPEPGSLSEKVSHLESMLWKLQEDLQREKADRAALEEEVRSLRHNNQRLLAESESAATRLLLASKHLGAPTTDLA
Regarding B2, the binding result in experiment [1] is given as “binds”; with Myc-tagged NUP210, “binds weakly”.
